Where “and” joins values, the source holds several entries; their conditions need not be identical. Equal values may be shown once. Hit rate of the full screen: of about 330,000 compounds, about 610 (0.18%) were called active. The inconclusive results got no clear call from the source; some entries with a clear call stand among them for comparison. Calls follow the shape of the full dose curve. Potencies beside an inconclusive call are fits to weak or partial responses and may not hold up.
Experiment: qHTS of Yeast-based Assay for SARS-CoV PLP; also: nearly all actives have a fitted effect of over 55% in size; as to activity, positive = growth rescue: 0% is about no effect
Conditions: S. cerevisiae expressing SARS-CoV PLpro; Potency: growth rescue; activity, positive = growth rescue: at 32.9 µM (top of the series)
Potency is read from the fitted curve at half-maximal effect.

Structure (SMILES)	Potency	activity, positive = growth rescue
CC1=CC(=C2C(=O)c3ccccc3C2=O)C=C(C)N1C	inactive	–
COc1ccc(CNC(=S)NCc2ccc(OC(C)C)cc2)cc1	inconclusive: 20 µM [activator, single point]	–
CCNC(=S)Nc1ccc(Cl)cc1Cl	inconclusive: 10 µM [activator, partial curve]	–
OC1(c2cccc(C(F)(F)F)c2)CCN(Cc2nnnn2CCc2ccccc2)CC1	inconclusive: 3.55 µM [activator, single point]	–
CC(C)NC(=O)c1[nH]nc2c1CCc1ccccc1-2	inactive	–
COc1ccc(/C=C/C(=O)Nc2ccc(S(=O)(=O)Nc3onc(C)c3C)cc2)cc1OC	inconclusive: 10 µM [activator, single point]	–
CCOc1ccc(C(=O)Nc2nc(C)c(C(=O)OC)s2)cc1	inactive	–
O=C(Nc1cccc(S(=O)(=O)N2CCCC2)c1)c1cc(-c2ccccn2)nc2ccccc12	inactive	–
Cc1ccc2oc(-c3cccc(NC(=O)Cc4cccs4)c3)nc2c1	inconclusive: 0.316 µM [activator, partial curve, poor fit]	–
O=C(c1ccc(O)c(Cl)c1)N1CCN(S(=O)(=O)c2ccccc2)CC1	inconclusive: 3.16 µM [activator, single point]	–
CCOC(=O)c1ccccc1NS(=O)(=O)c1ccccc1F	inconclusive: 20 µM [activator, single point]	–
Cc1cccc(Oc2ncnc(N)c2[N+](=O)[O-])c1C	inconclusive: 20 µM [activator, single point]	–
O=C(COc1ccc(-c2nnco2)cc1)Nc1ccc(C(F)(F)F)cc1	inactive	–
CCc1nnc(NC(=O)CN2CCN(S(C)(=O)=O)CC2)s1	inactive	–
Cc1cc2c(C(C)C)c(O)c(O)c(C=O)c2c(O)c1-c1c(C)cc2c(C(C)C)c(O)c(O)c(C=O)c2c1O	active: 2.24 µM and active: 10 µM	–
Cc1ccc(OCC(=O)N/N=C/c2c[nH]c3ccccc23)c([N+](=O)[O-])c1	inactive	–
CCCCC(=O)NNC(=S)NC(=O)c1ccc([N+](=O)[O-])cc1	inconclusive: 11.2 µM [activator, single point]	–
O=C(c1ccc(F)cc1)N1CCCC(N2CCN(Cc3ccc4c(c3)OCO4)CC2)C1 (centres undefined)	inconclusive: 3.16 µM [activator, single point]	–
CC(=O)c1ccc(N2CCN(c3ccnc4cc(Cl)ccc34)CC2)cc1	inconclusive: 20 µM [activator, single point]	–
CCc1cccc2c(C(=O)CCl)c[nH]c12	active: 12.6 µM	–
CN1CCN(C2=Cc3cc(Cl)ccc3Sc3cc(F)ccc32)CC1	inactive	–
O=C(Nc1ccc(C(F)(F)F)cc1)c1cccnc1N1CCOCC1	inactive	–
COc1ccc(Oc2c(O)c3ccccc3n(C)c2=O)cc1	inconclusive: 22.4 µM [activator, single point]	–
NNC(=O)c1nnn(-c2nonc2N)c1-c1cccs1	inactive	–
COc1cc(/C=N/NC(=O)Cn2c([N+](=O)[O-])cnc2C)ccc1OC(=O)N(C)C	inactive	–

Structure (SMILES)	Potency	activity, positive = growth rescue
Cc1cccc(CS(=O)(=O)Cc2ccc(C(=O)NC3CCCCCC3)o2)c1	inconclusive: 3.16 µM [activator, single point]	–
O=C(OC[C@@H]1CCCN2CCCC[C@H]12)c1cc2ccccc2oc1=O	inactive	–
Cc1cc2cc(C(c3nnnn3Cc3ccco3)N3CCc4ccccc43)c(=O)[nH]c2cc1C (centres undefined)	inconclusive: 2.82 µM [activator, single point]	–
CS(=O)(=O)N1CCCC(C(=O)NC2CCCCCCC2)C1 (centres undefined)	inconclusive: 4.47 µM [activator, single point]	–
O=c1c2ccccc2ncn1CCCSc1ccccc1	inconclusive: 2.82 µM [activator, partial curve]	–
O=C(NCCCN1CCOCC1)C(=O)N/N=C/c1c2ccccc2cc2ccccc12	inconclusive: 2.82 µM [activator, partial curve]	–
CC(C)NC(=O)Cn1c(SCC(=O)N2c3ccccc3CC2C)nc2ccccc21 (centres undefined)	inconclusive: 10 µM [activator, single point]	–
COc1ccc(-n2ncc3c2CC(C)(C)CC3NC(=O)CCc2c(C)noc2C)cc1 (centres undefined)	inconclusive: 4.47 µM [activator, single point]	–
CC(C)c1ccc(NC2CCCN(C(=O)CCN3CCCCC3=O)C2)cc1 (centres undefined)	inconclusive: 20 µM [activator, single point]	–
O=C(NCC#CCSc1nnc(-c2cccc3ccccc23)o1)c1cccs1	inconclusive: 3.98 µM [activator, single point]	–
CCCn1c(C(C)Nc2nc(C)cs2)nc2cc(Cl)c(Cl)cc21 (centres undefined)	inconclusive: 14.1 µM [activator, single point]	–
O=C(NCc1ccccn1)C1CC(c2ccc(Cl)c(Cl)c2)=NO1 (centres undefined)	inactive	–
CCc1ccc(NC(=O)CSc2nnc(C)c(=O)n2N)cc1	inconclusive: 2.82 µM [activator, full curve]	–
COc1ccc(/C=N/NC(=O)C(=O)N2CCCCCC2)cc1[N+](=O)[O-]	inconclusive: 3.16 µM [activator, single point]	–
COc1cccc(/C=N/Nc2ncnc3c2ncn3Cc2ccccc2)c1O	inconclusive: 2.51 µM [activator, full curve]	–
O=C(N/N=C/c1ccc[nH]1)c1ccncc1	inactive	–
Cc1cc(C(=O)Nc2ccc(Br)cc2F)n(-c2ccccc2)n1	inactive	–
COc1ccc(N=CC2=C(O)CC(C)(C)CC2=O)cc1	active: 12.6 µM	–
COc1ccc(S(=O)(=O)N2CCCCC2)cc1C(C)C	inconclusive: 20 µM [activator, single point]	–
Clc1cccc(Cl)c1Cn1cnc(=NCc2ccco2)c2[nH]cnc21	inactive	–
CCCCNC(=O)N1CCc2ccccc2C1	active: 3.16 µM	–
COc1cc2cc(C(=O)N3CCN(Cc4ccc5c(c4)OCO5)CC3)[nH]c2cc1OC	inactive	–
C=CCn1c(SCC(=O)Nc2ncc(Cc3ccc(C)c(Cl)c3)s2)nnc1-c1ccncc1	inconclusive: 6.31 µM [activator, partial curve, poor fit]	–
CN(/N=C/C=C/c1ccccc1)C1=NS(=O)(=O)c2ccccc21	inconclusive: 20 µM [activator, single point]	–
CCOc1ccc(Nc2ncnc3c2cnn3Cc2ccccc2)cc1	inactive	–

Some values from the results shown:
COc1ccc(N=CC2=C(O)CC(C)(C)CC2=O)cc1 | Potency: active: 12.6 µM
CCc1ccc(NC(=O)CSc2nnc(C)c(=O)n2N)cc1 | Potency: inconclusive: 2.82 µM [activator, full curve]
CCCCNC(=O)N1CCc2ccccc2C1 | Potency: active: 3.16 µM
Cc1cc(C(=O)Nc2ccc(Br)cc2F)n(-c2ccccc2)n1 | Potency: inactive
CC(C)NC(=O)Cn1c(SCC(=O)N2c3ccccc3CC2C)nc2ccccc21 (centres undefined) | Potency: inconclusive: 10 µM [activator, single point]
CN(/N=C/C=C/c1ccccc1)C1=NS(=O)(=O)c2ccccc21 | Potency: inconclusive: 20 µM [activator, single point]
Cc1cccc(CS(=O)(=O)Cc2ccc(C(=O)NC3CCCCCC3)o2)c1 | Potency: inconclusive: 3.16 µM [activator, single point]

(next part)

Structure (SMILES)	Potency	activity, positive = growth rescue
O=C(CSc1nnc(COc2ccccc2)n1Cc1ccco1)Nc1ccc2c(c1)OCCO2	inconclusive: 3.55 µM [activator, single point]	–
Cc1cccc(NC(=O)CNC(=O)COC(=O)c2ccco2)c1C	inconclusive: 8.91 µM [activator, partial curve]	–
CC(C)(C)c1ccc(S(=O)(=O)N2CC(C(=O)O)Oc3ccc(Cl)cc32)cc1 (centres undefined)	inactive	–
CCN(CC)CCCn1c(C)cc2c(c1=O)C(c1ccccc1)C(C#N)=C(N)O2 (centres undefined)	inactive	–
COc1cccc(C2C(C#N)=C(N)Oc3cc(C)oc(=O)c32)c1OC (centres undefined)	inconclusive: 20 µM [activator, single point]	–
COc1ccc(CN(C)CC(=O)Nc2cc(OC)c([N+](=O)[O-])cc2C)c(OC)c1	inconclusive: 10 µM [activator, single point]	–
C=CCn1c(SCC(=O)Nc2ccc3c(c2)OCO3)nnc1-c1ccccc1	inconclusive: 2.51 µM [activator, partial curve]	–
CNC(=S)N/N=C(\C)c1ccc(Cl)s1	inconclusive: 3.98 µM [activator, full curve]	–
CCN1C(=O)/C(=C/c2nc3ccccc3c(=O)[nH]2)c2ccccc21	inactive	–
CCCCC(=O)Nc1nnc(S(=O)(=O)N(C)Cc2ccco2)s1	inconclusive: 20 µM [activator, single point]	–
CCCCN(C(=O)c1ccc(S(=O)(=O)N(C)C)cc1)c1nc2ccccc2s1	inactive	–
Cc1ccc(Cc2cnc(NC(=O)c3cccs3)s2)cc1	inconclusive: 3.16 µM [activator, single point]	–
Cc1ccc(-n2nnnc2SCC(=O)Nc2sc(C)c(C)c2C#N)cc1C	inconclusive: 20 µM [activator, single point]	–
COC(=O)c1ccc(COC(=O)CNC(=O)C2CCCCC2)cc1	inconclusive: 3.55 µM [activator, single point]	–
O=C(CCn1cccc1)NCc1ccc2c(c1)OCO2	inconclusive: 10 µM [activator, single point]	–
C=CCN1C(=O)C(O)(CC(=O)c2ccc(Cl)cc2)c2ccccc21 (centres undefined)	inconclusive: 3.98 µM [activator, single point]	–
Cc1cc(N2CCCN(C)CC2)nc2cc(Cl)ccc12	inconclusive: 2.51 µM [activator, full curve, poor fit]	–
Cc1ccc(/C=C/C(=O)OCC(=O)Nc2cccc(S(=O)(=O)N(C)C)c2)o1	active: 3.16 µM	–
O=C(CSc1ncn[nH]1)Nc1cccc(S(=O)(=O)N2CCCCCC2)c1	inconclusive: 4.47 µM [activator, full curve, poor fit]	–
O=[N+]([O-])c1ccc(N2CCOCC2)cc1NC(c1ccccc1)c1ccccc1	inactive	–
Clc1cccc(/C=N\Nc2nccs2)c1	inconclusive: 11.2 µM [activator, partial curve]	–
O=CNc1ccc(OC(=O)c2cncc(Br)c2)cc1	inactive	–
CCN(Cc1nc2ccccc2c(=O)[nH]1)C(=O)COc1ccccc1-c1ccccc1	–	inactive: -4.51% [at 6.58 µM]
O=C(Nc1cccc(NC(=O)c2ccccc2F)c1)c1ccccc1	inactive	–
